Reference: article PMC5348358
Results are given in words; binding and its absence hold for the method and conditions named. Binding seen in cells or lysates may run through a third protein. Some results given as binding are weak or reduced against the parent protein; the word gives no strength.

The chains behind the UniProt entries cited, without tags or fusion partners. Where a name states a change or a piece, a line headed by the entry shows the natural chain unless it says otherwise. A line that says so, or that is headed by a name, gives the form on record, which may keep a tag or linker.
UniProt P29350: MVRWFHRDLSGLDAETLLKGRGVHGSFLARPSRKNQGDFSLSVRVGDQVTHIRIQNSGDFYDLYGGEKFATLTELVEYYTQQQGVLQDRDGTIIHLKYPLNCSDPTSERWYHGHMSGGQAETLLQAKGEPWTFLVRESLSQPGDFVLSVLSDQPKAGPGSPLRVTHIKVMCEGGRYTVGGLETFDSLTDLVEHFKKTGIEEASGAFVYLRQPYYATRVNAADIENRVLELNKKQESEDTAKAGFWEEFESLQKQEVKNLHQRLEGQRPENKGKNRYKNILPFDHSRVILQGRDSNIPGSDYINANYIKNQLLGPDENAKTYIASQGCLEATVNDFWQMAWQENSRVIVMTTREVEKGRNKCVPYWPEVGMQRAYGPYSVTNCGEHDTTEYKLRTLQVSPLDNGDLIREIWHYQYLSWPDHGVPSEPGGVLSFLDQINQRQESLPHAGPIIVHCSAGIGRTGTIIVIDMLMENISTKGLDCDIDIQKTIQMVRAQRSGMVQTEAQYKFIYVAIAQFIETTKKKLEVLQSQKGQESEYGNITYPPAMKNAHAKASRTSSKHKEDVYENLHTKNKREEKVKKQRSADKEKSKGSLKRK
TrkAIII (alternative TrkAIII splice variant of tropomyosin related kinase A), Y674/675 phosphorylated (P04629-4, form named): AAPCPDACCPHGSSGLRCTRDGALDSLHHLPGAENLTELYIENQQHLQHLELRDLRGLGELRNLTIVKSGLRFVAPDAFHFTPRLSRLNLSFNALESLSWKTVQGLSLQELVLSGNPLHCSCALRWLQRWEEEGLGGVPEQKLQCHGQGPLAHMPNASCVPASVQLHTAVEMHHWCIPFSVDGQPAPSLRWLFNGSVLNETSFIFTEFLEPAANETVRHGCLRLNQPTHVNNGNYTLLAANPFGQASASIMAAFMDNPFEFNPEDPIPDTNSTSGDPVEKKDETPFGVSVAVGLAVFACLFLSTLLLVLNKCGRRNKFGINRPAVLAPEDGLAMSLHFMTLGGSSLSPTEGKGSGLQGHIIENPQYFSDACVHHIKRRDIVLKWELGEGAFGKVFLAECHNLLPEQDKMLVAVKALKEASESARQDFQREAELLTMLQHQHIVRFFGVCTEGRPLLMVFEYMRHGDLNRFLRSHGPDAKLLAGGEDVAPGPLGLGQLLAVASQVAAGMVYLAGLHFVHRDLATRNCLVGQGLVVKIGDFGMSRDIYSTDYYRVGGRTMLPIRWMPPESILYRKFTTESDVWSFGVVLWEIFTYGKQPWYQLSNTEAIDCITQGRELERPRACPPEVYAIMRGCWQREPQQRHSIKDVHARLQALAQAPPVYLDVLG

Assays:
[1] = molecular target: SHP-1 (human (endogenous in SH-SY5Y)) (UniProt P29350); test: co-IP; SHP-1 immunoprecipitated from whole cell extracts (500 ug) of untreated TrkAIII SH-SY5Y cells, Western blot
[2] = molecular target: SHP-1 (human (endogenous in SH-SY5Y)) (UniProt P29350); test: co-IP; SHP-1 immunoprecipitated from whole TrkAIII SH-SY5Y cell extracts (500 ug), Western blot; cells treated with TRAIL 200 ng/ml (6 hours in the text, 12 hours in the legend); c-Src also found from untreated cells

**Q.** “TrkAIII (alternative TrkAIII splice variant of tropomyosin related kinase A), Y674/675 phosphorylated (from UniProt P04629-4 33-698) (receptor)” was tested. Which binding [1] did it give?
**A.** no binding (condition: untreated cells (without TRAIL))

**Q.** And the binding [2]?
**A.** binds
